Source: paper PMC10870779
Results are given in words; binding and its absence hold for the method and conditions named. Binding seen in cells or lysates may run through a third protein. Some binding calls cover weakened binding; strength is not graded here. For some assays here: Sequences can lack the tags named with a protein.

By UniProt entry, the sequences of proteins in these tests, tags left out.
UniProt P23258: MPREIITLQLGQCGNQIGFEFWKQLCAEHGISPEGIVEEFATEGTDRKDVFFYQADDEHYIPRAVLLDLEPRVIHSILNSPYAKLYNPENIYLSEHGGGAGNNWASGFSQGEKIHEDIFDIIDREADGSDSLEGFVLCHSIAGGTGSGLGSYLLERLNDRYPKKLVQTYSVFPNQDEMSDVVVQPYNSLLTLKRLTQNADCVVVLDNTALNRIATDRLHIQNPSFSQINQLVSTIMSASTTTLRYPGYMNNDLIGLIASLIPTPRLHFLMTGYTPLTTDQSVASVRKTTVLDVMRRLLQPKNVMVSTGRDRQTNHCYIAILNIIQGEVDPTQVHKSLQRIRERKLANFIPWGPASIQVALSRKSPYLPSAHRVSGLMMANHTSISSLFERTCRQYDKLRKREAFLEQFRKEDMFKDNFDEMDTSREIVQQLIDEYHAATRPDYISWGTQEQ
UniProt Q921G8: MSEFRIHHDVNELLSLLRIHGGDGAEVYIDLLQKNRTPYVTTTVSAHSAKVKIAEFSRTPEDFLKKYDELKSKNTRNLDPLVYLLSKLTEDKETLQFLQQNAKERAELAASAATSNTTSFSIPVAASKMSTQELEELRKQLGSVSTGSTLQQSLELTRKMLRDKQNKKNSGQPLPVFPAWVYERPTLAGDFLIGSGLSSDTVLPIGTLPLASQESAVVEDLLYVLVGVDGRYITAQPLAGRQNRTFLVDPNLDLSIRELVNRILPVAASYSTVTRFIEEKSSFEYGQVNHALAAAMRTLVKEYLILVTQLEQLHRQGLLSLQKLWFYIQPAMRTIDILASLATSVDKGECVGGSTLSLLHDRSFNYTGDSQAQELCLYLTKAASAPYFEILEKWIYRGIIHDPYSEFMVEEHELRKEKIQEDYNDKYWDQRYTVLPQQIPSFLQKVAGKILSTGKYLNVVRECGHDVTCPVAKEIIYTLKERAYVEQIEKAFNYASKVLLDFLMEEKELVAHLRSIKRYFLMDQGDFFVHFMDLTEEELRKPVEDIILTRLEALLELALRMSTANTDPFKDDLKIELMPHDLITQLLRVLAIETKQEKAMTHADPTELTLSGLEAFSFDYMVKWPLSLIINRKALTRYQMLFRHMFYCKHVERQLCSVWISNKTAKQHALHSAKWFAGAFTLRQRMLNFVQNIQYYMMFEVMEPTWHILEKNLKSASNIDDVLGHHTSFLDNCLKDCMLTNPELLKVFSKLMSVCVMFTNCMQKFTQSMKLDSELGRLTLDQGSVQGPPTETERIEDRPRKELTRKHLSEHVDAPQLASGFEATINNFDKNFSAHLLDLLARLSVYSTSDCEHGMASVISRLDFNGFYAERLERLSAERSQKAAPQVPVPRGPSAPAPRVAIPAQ
UniProt P58854: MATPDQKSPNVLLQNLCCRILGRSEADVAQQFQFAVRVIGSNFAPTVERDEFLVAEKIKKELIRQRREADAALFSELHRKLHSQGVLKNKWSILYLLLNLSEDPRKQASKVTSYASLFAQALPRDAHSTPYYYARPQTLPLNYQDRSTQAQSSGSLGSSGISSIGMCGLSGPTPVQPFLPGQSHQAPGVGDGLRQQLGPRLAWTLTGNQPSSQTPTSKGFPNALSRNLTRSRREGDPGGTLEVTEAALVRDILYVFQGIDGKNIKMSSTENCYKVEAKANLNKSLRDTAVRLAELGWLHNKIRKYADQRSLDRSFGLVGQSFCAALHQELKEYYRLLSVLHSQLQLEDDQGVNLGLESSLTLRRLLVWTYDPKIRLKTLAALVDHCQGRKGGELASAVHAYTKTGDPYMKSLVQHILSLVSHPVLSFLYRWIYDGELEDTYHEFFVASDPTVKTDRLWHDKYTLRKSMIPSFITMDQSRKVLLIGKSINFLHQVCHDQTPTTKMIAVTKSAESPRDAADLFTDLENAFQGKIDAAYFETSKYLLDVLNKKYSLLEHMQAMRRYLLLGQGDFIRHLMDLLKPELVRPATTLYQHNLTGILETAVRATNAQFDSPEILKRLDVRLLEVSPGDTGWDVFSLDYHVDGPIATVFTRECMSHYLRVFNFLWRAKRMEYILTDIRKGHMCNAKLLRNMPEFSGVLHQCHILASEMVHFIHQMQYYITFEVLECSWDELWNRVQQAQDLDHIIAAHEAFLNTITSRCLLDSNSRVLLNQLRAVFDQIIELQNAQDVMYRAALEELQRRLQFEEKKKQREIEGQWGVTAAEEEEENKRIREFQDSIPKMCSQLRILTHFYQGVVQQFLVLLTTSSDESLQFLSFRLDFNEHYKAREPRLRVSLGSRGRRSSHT
UniProt Q9D4F8: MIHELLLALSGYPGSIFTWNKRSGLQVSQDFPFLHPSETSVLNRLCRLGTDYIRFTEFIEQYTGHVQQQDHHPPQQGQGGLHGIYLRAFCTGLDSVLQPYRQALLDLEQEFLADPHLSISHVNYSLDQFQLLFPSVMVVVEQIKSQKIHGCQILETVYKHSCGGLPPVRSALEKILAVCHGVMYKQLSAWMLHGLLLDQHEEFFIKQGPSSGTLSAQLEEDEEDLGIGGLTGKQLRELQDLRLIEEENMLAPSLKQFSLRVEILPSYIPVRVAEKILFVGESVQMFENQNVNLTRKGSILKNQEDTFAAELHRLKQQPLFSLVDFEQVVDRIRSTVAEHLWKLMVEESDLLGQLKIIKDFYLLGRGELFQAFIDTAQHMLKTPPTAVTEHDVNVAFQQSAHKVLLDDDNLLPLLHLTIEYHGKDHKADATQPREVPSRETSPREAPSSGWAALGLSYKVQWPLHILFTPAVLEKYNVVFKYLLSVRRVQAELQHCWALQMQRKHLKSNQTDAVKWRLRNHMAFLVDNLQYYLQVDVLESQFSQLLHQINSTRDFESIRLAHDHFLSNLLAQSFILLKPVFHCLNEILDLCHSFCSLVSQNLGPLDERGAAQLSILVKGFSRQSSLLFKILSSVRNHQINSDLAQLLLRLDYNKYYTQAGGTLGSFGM

Legend:
[1] = target: N-terminally GST-tagged human γ-tubulin (human) (UniProt P23258); experiment: pull-down; GST-tagged human γ-tubulin or GST alone with whole-cell extracts; immunoblot; only the target purified
[2] = target: T1, C-terminally TagRFP-tagged mouse GIT2, transcript variant 1 (mouse) (UniProt Q9JLQ2); experiment: co-IP; whole-cell extracts of cells expressing GIT2-TagRFP or TagRFP alone; protein A beads with rabbit Ab to tRFP or mAb to γ-tubulin; immunoblot
T1 sequence: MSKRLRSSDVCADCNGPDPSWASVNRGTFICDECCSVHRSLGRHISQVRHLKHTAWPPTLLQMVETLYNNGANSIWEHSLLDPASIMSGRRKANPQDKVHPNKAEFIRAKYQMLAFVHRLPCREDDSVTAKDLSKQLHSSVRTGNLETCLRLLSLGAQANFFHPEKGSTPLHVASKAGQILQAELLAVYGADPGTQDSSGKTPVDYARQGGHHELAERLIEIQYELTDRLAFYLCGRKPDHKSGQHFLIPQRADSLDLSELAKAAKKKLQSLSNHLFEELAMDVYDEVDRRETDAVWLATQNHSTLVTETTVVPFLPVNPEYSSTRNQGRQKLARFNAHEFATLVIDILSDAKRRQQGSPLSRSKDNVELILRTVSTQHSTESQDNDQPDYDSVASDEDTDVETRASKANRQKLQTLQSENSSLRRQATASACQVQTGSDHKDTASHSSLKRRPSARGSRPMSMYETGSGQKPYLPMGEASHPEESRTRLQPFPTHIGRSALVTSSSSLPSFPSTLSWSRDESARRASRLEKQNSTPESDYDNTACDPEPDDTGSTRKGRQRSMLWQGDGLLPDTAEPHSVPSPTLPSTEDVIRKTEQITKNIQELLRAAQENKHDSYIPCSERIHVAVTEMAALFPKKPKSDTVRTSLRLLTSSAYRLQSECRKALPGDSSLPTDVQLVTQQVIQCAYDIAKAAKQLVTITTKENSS

[3] = target: T2, G protein-coupled receptor kinase-interacting protein 2 (GIT2), GIT2-long, endogenous (mouse (endogenous in BMMCL)) (UniProt Q9JLQ2); experiment: co-IP; whole-cell 1% NP-40 extracts of BMMCL (HEPES buffer pH 7.6, 75 mM NaCl, 1 mM MgCl2, 1 mM EGTA) incubated with protein A beads saturated with rabbit Ab to GIT2 or mouse mAb TU-31 to γ-tubulin; endogenous proteins; immunoblot
T2 sequence: T1 sequence

binding [1]	binding [2]	binding [3]	Substance
binds	binds	binds	γ-tubulin complex protein 2 (GCP2), endogenous (from UniProt Q921G8 1-905)
–	binds	binds	γ-tubulin complex protein 3 (GCP3), endogenous (from UniProt P58854 1-905)
binds	binds	binds	γ-tubulin complex protein 4 (GCP4), endogenous (from UniProt Q9D4F8 1-667)
